Results from the supplement of paper PMC8728848.
This is one part of the list.

Experiments:
Test in all cases: glycan array binding signal (z-score within array); higher = stronger binding
Settings in all cases: glycan notation: IUPAC condensed, linker removed
[1] = biological target: Man(a1-2)Man(a1-3)[Man(a1-2)Man(a1-6)]Man
Summary of the method: (§1)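 The binding signal is a Z-score computed within each array. Data were drawn from 3228 arrays in the Consortium for Functional Glycomics database, restricted to those with a known protein sequence. Scores were averaged over arrays of the same protein sequence at different concentrations or buffers, and over linkers, and negative values can be taken as non-binding.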

[2] = biological target: Man(a1-2)Man(a1-3)[Man(a1-2)Man(a1-6)]Man(a1-6)[Man(a1-2)Man(a1-2)Man(a1-3)]Man
Summary of the method: as §1

[3] = biological target: Man(a1-2)Man(a1-3)[Man(a1-2)Man(a1-6)]Man(a1-6)[Man(a1-2)Man(a1-2)Man(a1-3)]Man(b1-4)GlcNAc(b1-4)GlcNAc
Summary of the method: as §1

[4] = biological target: Man(a1-2)Man(a1-3)[Man(a1-6)]Man(a1-6)[Man(a1-2)Man(a1-3)]Man(b1-4)GlcNAc(b1-4)GlcNAc
Summary of the method: as §1

[5] = biological target: Man(a1-2)Man(a1-6)[Man(a1-3)]Man(a1-6)[Man(a1-2)Man(a1-2)Man(a1-3)]Man
Summary of the method: as §1

[6] = biological target: Man(a1-2)Man(a1-6)[Man(a1-3)]Man(a1-6)[Man(a1-2)Man(a1-2)Man(a1-3)]Man(b1-4)GlcNAc(b1-4)GlcNAc
Summary of the method: as §1

[7] = biological target: Man(a1-3)[Man(a1-6)]Man
Summary of the method: as §1

[8] = biological target: Man(a1-3)[Man(a1-6)]Man(a1-6)[Man(a1-2)Man(a1-3)]Man(b1-4)GlcNAc(b1-4)GlcNAc
Summary of the method: as §1

[9] = biological target: Man(a1-3)[Man(a1-6)]Man(a1-6)[Man(a1-3)]Man
Summary of the method: as §1

[10] = biological target: Man(a1-3)[Man(a1-6)]Man(a1-6)[Man(a1-3)]Man(b1-4)GlcNAc(b1-4)GlcNAc
Summary of the method: as §1

[11] = biological target: Man(a1-3)[Man(a1-6)]Man(b1-4)GlcNAc(b1-4)GlcNAc
Summary of the method: as §1

[12] = biological target: Man(a1-3)[Man(a1-6)]Man(b1-4)GlcNAc(b1-4)[Fuc(a1-6)]GlcNAc
Summary of the method: as §1

[13] = biological target: Man(a1-6)Man
Summary of the method: as §1

[14] = biological target: Man(b1-4)GlcNAc
Summary of the method: as §1

[15] = biological target: MurNAc(b1-4)GlcNAc
Summary of the method: as §1

[16] = biological target: Neu5Ac(a2-3)Gal
Summary of the method: as §1

[17] = biological target: Neu5Ac(a2-3)Gal(b1-3)GalNAc
Summary of the method: as §1

[18] = biological target: Neu5Ac(a2-3)Gal(b1-3)GalNAc(b1-3)Gal(a1-4)Gal(b1-4)Glc
Summary of the method: as §1

[19] = biological target: Neu5Ac(a2-3)Gal(b1-3)GalNAc(b1-4)Gal(b1-4)Glc
Summary of the method: as §1

[20] = biological target: Neu5Ac(a2-3)Gal(b1-3)GalNAc(b1-4)[Neu5Ac(a2-3)]Gal(b1-4)Glc
Summary of the method: as §1

[21] = biological target: Neu5Ac(a2-3)Gal(b1-3)GalNAc(b1-4)[Neu5Ac(a2-8)Neu5Ac(a2-3)]Gal(b1-4)Glc
Summary of the method: as §1

[22] = biological target: Neu5Ac(a2-3)Gal(b1-3)GalNAc6S
Summary of the method: as §1

[23] = biological target: Neu5Ac(a2-3)Gal(b1-3)GlcNAc
Summary of the method: as §1

[24] = biological target: Neu5Ac(a2-3)Gal(b1-3)GlcNAc(b1-2)Man
Summary of the method: as §1

[25] = biological target: Neu5Ac(a2-3)Gal(b1-3)GlcNAc(b1-2)Man(a1-3)[GlcNAc(b1-4)][Neu5Ac(a2-3)Gal(b1-3)GlcNAc(b1-2)Man(a1-6)]Man(b1-4)GlcNAc(b1-4)GlcNAc
Summary of the method: as §1

[26] = biological target: Neu5Ac(a2-3)Gal(b1-3)GlcNAc(b1-2)Man(a1-3)[Neu5Ac(a2-3)Gal(b1-3)GlcNAc(b1-2)Man(a1-6)]Man(b1-4)GlcNAc(b1-4)GlcNAc
Summary of the method: as §1

[27] = biological target: Neu5Ac(a2-3)Gal(b1-3)GlcNAc(b1-2)[Neu5Ac(a2-3)Gal(b1-3)GlcNAc(b1-4)]Man(a1-6)[Neu5Ac(a2-3)Gal(b1-3)GlcNAc(b1-2)Man(a1-3)]Man(b1-4)GlcNAc(b1-4)GlcNAc
Summary of the method: as §1

[28] = biological target: Neu5Ac(a2-3)Gal(b1-3)GlcNAc(b1-3)Gal(b1-3)GlcNAc
Summary of the method: as §1

[29] = biological target: Neu5Ac(a2-3)Gal(b1-3)GlcNAc(b1-3)Gal(b1-4)GlcNAc
Summary of the method: as §1

[30] = biological target: Neu5Ac(a2-3)Gal(b1-3)GlcNAc(b1-3)GalNAc
Summary of the method: as §1

B1: R2-fiber (Pseudomonas aeruginosa), Q9S576 (protein)
chain: HHHHHHKVAKDLVVSLAYQVRTEDGVLVDESPVSAPLDYLHGHGSLISGLETALEGHEVGDKFDVAVGANDAYGQYDENLVQRVPKDVFMGVDELQVGMRFLAETDQGPVPVEITAVEDDHVVVDGNHMLAGQNLKFNVEVVAIREATEEELAHGHVHGAHDHHHDHDHDGCCGGHGHDHGHEHGGEGCCGGKGNGGCGCHENLYFQGVTAGMALAATDIPGLDASKLVSGVLAEQRLPVFARGLATAVSNSSDPNTATVPLMLTNHANGPVAGRYFYIQSMFYPDQNGNASQIATSYNATSEMYVRVSYAANPSIREWLPWQRCDIGGSFTKEADGELPGGVNLDSMVTSGWWSQSFTAQAASGANYPIVRAGLLHVYAASSNFIYQTYQAYDGESFYFRCRHSNTWFPWRRMWHGGDFNPSDYLLKSGFYWNALPGKPATFPPSAHNHDVGQLTSGILPLARGGVGSNTAAGARSTIGAGVPATASLGASGWWRDNDTGLIRQWGQVTCPADADASITFPIPFPTLCLGGYANQTSAFHPGTDASTGFRGATTTTAVIRNGYFAQAVLSWEAFGR
[1]
  glycan array binding signal (z-score): -0.739
[2]
  glycan array binding signal (z-score): -0.717
[3]
  glycan array binding signal (z-score): -0.216
[4]
  glycan array binding signal (z-score): -0.822
[5]
  glycan array binding signal (z-score): -0.104
[6]
  glycan array binding signal (z-score): -0.04
[7]
  glycan array binding signal (z-score): 0.568
[8]
  glycan array binding signal (z-score): 0.172
[9]
  glycan array binding signal (z-score): 0
[10]
  glycan array binding signal (z-score): 0.02
[11]
  glycan array binding signal (z-score): -0.673
[12]
  glycan array binding signal (z-score): -0.775
[13]
  glycan array binding signal (z-score): -0.173
[14]
  glycan array binding signal (z-score): -0.572
[15]
  glycan array binding signal (z-score): -0.717
[16]
  glycan array binding signal (z-score): 2.35
[17]
  glycan array binding signal (z-score): -0.092
[18]
  glycan array binding signal (z-score): -0.432
[19]
  glycan array binding signal (z-score): 0.234
[20]
  glycan array binding signal (z-score): -0.554
[21]
  glycan array binding signal (z-score): 1.07
[22]
  glycan array binding signal (z-score): -0.342
[23]
  glycan array binding signal (z-score): -0.016
[24]
  glycan array binding signal (z-score): 0.138
[25]
  glycan array binding signal (z-score): -0.285
[26]
  glycan array binding signal (z-score): -0.122
[27]
  glycan array binding signal (z-score): 0.062
[28]
  glycan array binding signal (z-score): -0.522
[29]
  glycan array binding signal (z-score): -0.269
[30]
  glycan array binding signal (z-score): -0.718
